# In PMC3788737, “Structural Insights into Neutrophilic Migration Revealed by the Crystal Structure of the Chemokine Receptor CXCR2 in Complex with the First PDZ Domain of NHERF1” (PLoS ONE, 2013):
# The chains behind the UniProt entries cited, without tags or fusion partners. Where a name states a change or a piece, a line headed by the entry shows the natural chain unless it says otherwise.
# UniProt P25025: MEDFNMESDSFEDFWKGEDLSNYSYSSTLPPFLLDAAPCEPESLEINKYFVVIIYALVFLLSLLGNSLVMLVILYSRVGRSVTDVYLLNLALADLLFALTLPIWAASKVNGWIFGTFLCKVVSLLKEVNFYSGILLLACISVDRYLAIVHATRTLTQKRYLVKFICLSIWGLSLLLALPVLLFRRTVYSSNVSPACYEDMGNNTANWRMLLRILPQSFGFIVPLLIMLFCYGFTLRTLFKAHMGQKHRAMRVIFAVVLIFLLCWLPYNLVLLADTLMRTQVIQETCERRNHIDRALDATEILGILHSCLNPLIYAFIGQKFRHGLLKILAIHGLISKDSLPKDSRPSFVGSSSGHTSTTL
# No constants are given. Whether binding was seen depends on the method and setting. Binding calls can cover weak binding; strength is not graded here.
# Molecular target: T1, synthetic CXCR2 C-tail peptide (last 13 residues with a biotin-conjugate at N-terminus) (human) (UniProt P25025)
# T1 sequence (peptide, biotin-conjugate at N-terminus): FVGSSSGHTSTTL
# Experiment: pull-down; biotin pull-down: purified GST-PDZ domains or GST alone mixed with the biotinylated CXCR2 C-tail peptide in PBS, 0.2% Triton X-100 at 20 °C for 1 h, Streptavidin beads, anti-GST immunoblot; both purified
row,binding,Substance
1,binds,GST fusion protein of NHERF1 PDZ2 domain (human) (domain or fragment)
2,binds,GST fusion protein of NHERF1 PDZ1 domain (human) (domain or fragment)
